Test results: PMC8361268
No constants are given. Whether binding was seen depends on the method and setting.

Target: saSrtA_(pneumoniae): Staphylococcus aureus sortase A with the β7–β8 loop residues from Streptococcus pneumoniae SrtA (Staphylococcus aureus) (UniProt Q2FV99)
Test: SEC; […] (0.05 M Tris pH 7.5, 0.15 M NaCl, 0.001 M TCEP); both purified

With “saSrtA_(pneumoniae): Staphylococcus aureus sortase A with the β7–β8 loop residues from Streptococcus pneumoniae SrtA (from UniProt Q2FV99) (enzyme)” the binding was “no binding”.
